# Data as given in PubChem BioAssay AID504847 (National Center for Advancing Translational Sciences (NCATS), 2011).
# Protein sequences, listed by entry. Tags and fused reporters are not part of them.
# UniProt P11473, whole entry, looked up: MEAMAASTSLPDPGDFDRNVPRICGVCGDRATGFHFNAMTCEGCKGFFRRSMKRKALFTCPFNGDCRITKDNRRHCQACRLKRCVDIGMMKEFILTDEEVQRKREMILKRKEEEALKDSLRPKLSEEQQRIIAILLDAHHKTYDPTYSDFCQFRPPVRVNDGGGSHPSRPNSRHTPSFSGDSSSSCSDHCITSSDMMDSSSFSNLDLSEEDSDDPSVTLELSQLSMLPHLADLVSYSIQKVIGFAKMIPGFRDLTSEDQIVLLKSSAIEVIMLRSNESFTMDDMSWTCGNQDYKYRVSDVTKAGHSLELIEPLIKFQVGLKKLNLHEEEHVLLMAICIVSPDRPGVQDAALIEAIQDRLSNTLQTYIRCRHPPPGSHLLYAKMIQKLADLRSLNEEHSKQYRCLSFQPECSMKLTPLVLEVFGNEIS
# Values joined by “and” are separate entries in the source; they are usually repeats but may differ in a detail not shown here. Identical values can stand only once. In all, about 400,000 compounds went through this assay and about 3,700 (0.93%) were called active. The shares of active, inactive and inconclusive entries below differ from those in the screen. Calls follow the shape of the dose curve; as a rule, active = well fitted inhibition curve with a large enough effect; inconclusive = small, poorly fitted or top-dose-only effect, or another doubt; inactive = no such curve, though single readings can be large or run the other way. Potencies of inconclusive entries are doubtful fits and often do not repeat.
# Target: Vitamin D3 receptor (Homo sapiens) (UniProt P11473)
# Assay: Inhibitors of the vitamin D receptor (VDR): qHTS
# Conditions: VDR-SRC2-3 peptide fluorescence polarization, 2 h; max response, negative = inhibition: hits give low values
# In short: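 The screen uses fluorescence polarization to detect compounds that interfere with recruitment of the SRC2-3 coactivator peptide to VDR; plates are read after 2 h at room temperature.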
# % is scaled to controls: 0 for no effect and ±100 for the full control effect; potency is read from the fitted curve at half-maximal effect.
SMILES,"max response, negative = inhibition",Potency
CC(C)C[C@@H](CC(=O)N[C@@H](CCC(=O)O)CC(=O)O)NC(=O)[C@@H]1CNCC[C@H]1NC(=O)C[C@@H](NC(=O)C[C@H](Cc1c[nH]c2ccccc12)NC(=O)[C@@H]1CCCC[C@H]1N)C(C)C,inactive: 1.74%,
CCCCCN1C(C(=O)c2ccccc2)=C(NC(C)=O)c2ccccc2S1(=O)=O,,"inconclusive: 4.47 µM [inhibitor, partial curve, poor fit]"
Cc1nc(C#N)c(N/N=C/c2c(F)cccc2Cl)o1,,active: 79.4 µM
Cc1c(C(=O)N2CCOCC2)c(S(=O)(=O)Nc2ccc(OC(F)(F)F)cc2)c(C)n1C,inactive: 2.68%,
O/N=C/c1cccn1-c1ccc(O)cc1,inactive: -12.6%,
CC(C)c1ccccc1NC(=O)c1ccc2ncsc2c1,,"inconclusive: 70.8 µM [inhibitor, single point]"
CCn1c(=O)c2c(nc(SCC(=O)Nc3ccccc3)n2C)n(C)c1=O,inactive: -7.58%,
COc1ccc(NC(=O)CCS(=O)(=O)c2nc(-c3ccc4c(c3)OCO4)cc(C(F)(F)F)n2)c(OC)c1,,"inconclusive: 14.1 µM [inhibitor, full curve, poor fit]"
CCCN(C(=O)COC(=O)CSc1ccc([N+](=O)[O-])cc1)C1CCS(=O)(=O)C1 (stereo not drawn),,active: 89.1 µM
CCN(CC)c1ccc(/C=C(/C#N)c2nc3ccccc3[nH]2)c(OC(C)C)c1,,"inconclusive: 2 µM [inhibitor, partial curve, poor fit]"
O=C1/C(=C/c2cccc(F)c2)CSc2sccc21,,"inconclusive: 17.8 µM [inhibitor, partial curve, poor fit]"
Cc1ccc(-n2c(C)nc3oc4ccccc4c(=O)c3c2=O)cc1,inactive: 11.1%,
COc1ccc(CCN2CC(C(=O)NCCc3cnn(C)c3)CCC2=O)cc1 (stereo not drawn),,"inconclusive: 35.5 µM [inhibitor, single point]"
N#Cc1c(SCc2c(Cl)cccc2Cl)nc(N)[nH]c1=S,,"inconclusive: 56.2 µM [inhibitor, partial curve, poor fit]"
CCCC[C@@H]1C=C(C(=O)O)[C@H](c2ccc(Cl)c(Cl)c2)N1S(=O)(=O)c1ccc(C)cc1,,"inconclusive: 89.1 µM [inhibitor, partial curve, poor fit]"
Cc1cc(N2C(=O)C(O)=C(C(=O)c3ccc(C)o3)C2c2ccc(OCc3ccccc3)cc2)no1 (stereo not drawn),,"inconclusive: 56.2 µM [inhibitor, partial curve, poor fit]"
CC(N)C12CC3CC(C1)CC(C(C)N)(C3)C2 (stereo not drawn),inactive: -3.08%,
O=C(O)c1ccc(/C=C2\COc3ccccc3C2=O)cc1,,active: 20 µM
O=C1CC(C(=O)N2CCN(c3ccccc3O)CC2)CN1Cc1ccccc1 (stereo not drawn),inactive: -17.1%,
CCOC(=O)C1C(=O)NC(SCC(=O)OC)=C(C#N)C1c1ccccc1OCC (stereo not drawn),inactive: 2.42%,
Nc1ccc2nc3c(=O)[nH]c(=S)[nH]c3nc2c1,,active: 79.4 µM
O=C(NC(=S)Nc1ncc(Br)cc1Br)c1cncc(Br)c1,inactive: 16.5%,
COc1cc(C(=O)Nc2ccc3c(c2)C(=O)c2ccccc2C3=O)cc(OC)c1OC,inactive: 20.3%,

SMILES,"max response, negative = inhibition",Potency
COc1ccc(-c2c(C)c3ccc(O)cc3oc2=O)cc1OC,,"inconclusive: 70.8 µM [inhibitor, partial curve, poor fit]"
O=C(COc1ccc(/C=N/NC(=O)c2ccccc2O)cc1)Nc1ccc([N+](=O)[O-])cc1,inactive: -23.3%,
CC(Sc1nnc(C2CC2)n1C1CC1)C(=O)NC1(C#N)CCCCC1 (stereo not drawn),inactive: -23.7%,
Cc1oc2c(C)c3oc(=O)c(CCC(=O)O)c(C)c3cc2c1-c1ccccc1,,"inconclusive: 56.2 µM [inhibitor, partial curve, poor fit]"
O=c1cc(O)c2sc(Nc3ccc(F)c(Cl)c3)nc2[nH]1,,"inconclusive: 17.8 µM [inhibitor, single point]"
COc1ccc(CN2CCNC(=O)C2CC(=O)NC2CCCC2)c(C)c1C (stereo not drawn),,"inconclusive: 39.8 µM [inhibitor, single point]"
O=S(=O)(c1cccc(C(F)(F)F)c1)N1CCC(c2cc(-c3cccc4ccccc34)n[nH]2)CC1,,"inconclusive: 56.2 µM [inhibitor, partial curve, poor fit]"
Cc1onc(-c2ccccc2)c1C(=O)Nc1ccc(S(=O)(=O)N2CCOCC2)cc1,inactive: -6.35%,
CC1=C(C(=O)OC2CCCCCC2)C(c2cccc(Cl)c2)CC(=O)N1 (stereo not drawn),,"inconclusive: 100 µM [inhibitor, single point]"
CCOc1ccc(N2C(=O)C(C)CNC2=S)cc1 (stereo not drawn),,"inconclusive: 89.1 µM [inhibitor, single point]"
Cc1cc(NC(=O)Cc2ccsc2)ccc1Br,inactive: -17.4%,
CCOC(=O)C1=C(COC(=O)/C=C/c2ccc(C)o2)NC(=O)NC1C (stereo not drawn),inactive: -1.98%,
O=C(Oc1ccccc1C(=O)Nc1ccccc1)c1ccc(Br)c([N+](=O)[O-])c1,,active: 50.1 µM
O=C(NC(=S)N1CCN(C/C=C/c2ccccc2)CC1)c1ccco1,inactive: -15%,
COc1ccc(CCNC(=O)Cc2c(C)c3cc4c(C)coc4c(C)c3oc2=O)cc1,inactive: 12.8%,
Cc1ccc(-n2nc(C)c(Sc3ccccc3[N+](=O)[O-])c2N)cc1,,"inconclusive: 79.4 µM [inhibitor, single point]"
CCCCCCCCS(=O)CCC(=O)O (stereo not drawn),inactive: 5.24%,
COc1cc(Cl)c(C)cc1NC(=O)c1cnc(N2CCOCC2)c2ccccc12,inactive: -3.03%,
Cc1cn2c(=O)c(S(=O)(=O)NCc3ccccc3Cl)c(C)nc2s1,inactive: -1.78%,
NC(=S)N/N=C/c1ccccc1OC(=O)/C=C/c1ccccc1,,"inconclusive: 100 µM [inhibitor, single point]"
CCOC(=O)c1cccc(NC(=O)CCc2c(C)nn(-c3ccc(N4CCOCC4)nn3)c2C)c1,inactive: 9.21%,
O=C(NNC(=S)NC(=O)c1ccccc1)c1cccc([N+](=O)[O-])c1,inactive: -22.8%,
CC(=O)OCC1=C(C(=O)O)N2C(=O)C(NC(=O)c3ccc(COc4cccc(Cl)c4Cl)o3)C2SC1 (stereo not drawn),,active: 25.1 µM

SMILES,"max response, negative = inhibition",Potency
S=c1[nH]nc(-c2cccs2)n1/N=C/c1c(Cl)cccc1Cl,,"inconclusive: 100 µM [inhibitor, single point]"
O=C(/C=C/c1ccc([N+](=O)[O-])cc1)c1cccnc1,,active: 56.2 µM
Cc1sc2nc(CSCC(=O)N(C)CC(=O)Nc3ccc(F)cc3)[nH]c(=O)c2c1C,,"inconclusive: 89.1 µM [inhibitor, single point]"
O=C(O)Cc1cc(I)c(Oc2ccc(O)c(I)c2)c(I)c1,,"inconclusive: 25.1 µM [inhibitor, partial curve]"
Cc1ccc(C(=O)N2CCCC(N3CCN(c4cccc(C(F)(F)F)c4)CC3)C2)s1 (stereo not drawn),,"inconclusive: 89.1 µM [inhibitor, single point]"
Cc1ccc(NS(=O)(=O)Cc2ccccc2)nc1,inactive: 12%,
O=C(/C=C/c1cccc([N+](=O)[O-])c1)c1cccs1,,"inconclusive: 12.6 µM [inhibitor, full curve, poor fit]"
O=C(O)/C=C\C(=O)Nc1ccc(N2CCN(c3ccc(Cl)c(Cl)c3)CC2)cc1,,"inconclusive: 39.8 µM [inhibitor, full curve, poor fit]"
COc1cc(/C=C/C(=O)c2c(O)cc(C)oc2=O)ccc1O,,"inconclusive: 44.7 µM [inhibitor, partial curve]"
O=C(Nc1ccc(F)cc1)N1CCN(C/C=C/c2ccccc2)CC1,inactive: -3.78%,
O=C(CSc1nncs1)Nc1ccc2c(c1)OCO2,inactive: -15.9%,
CC1(c2ccccc2)CC(C)(C)N2C(=O)C(=O)c3cccc1c32 (stereo not drawn),,"inconclusive: 79.4 µM [inhibitor, partial curve, poor fit]"
Cc1ccc(C(=O)NCCCNCCCN(C)C)cn1,inactive: 42.6%,
CC(=O)c1c(C)[nH]c(C(=O)N2CCN(S(=O)(=O)c3ccc(F)c(F)c3)CC2)c1C,,"inconclusive: 89.1 µM [inhibitor, partial curve, poor fit]"
CCN(CC)CCCN(c1ccccc1)C1Cc2ccccc2C1,,"inconclusive: 50.1 µM [inhibitor, partial curve, poor fit]"
CCN(CC)C(=O)CSc1nnc(-c2ccccc2)n1N,inactive: 0.728%,
O=[N+]([O-])c1ccc(N/N=C/c2cccc(O)c2O)cc1,,"inconclusive: 35.5 µM [inhibitor, partial curve, poor fit]"
Cc1ccccc1OCC(=O)NCC(C)NC(=O)COc1ccccc1C (stereo not drawn),,"inconclusive: 79.4 µM [inhibitor, partial curve, poor fit]"
O=C1/C(=C/c2ccc(N3CCOCC3)o2)SC(=Nc2ccccc2)N1CCc1c[nH]c2ccccc12,,active: 79.4 µM
CC1CCC(O)C/C1=C\C=C1/CCCC2(C)C1CCC2C(C)/C=C/C(C)C(C)C (stereo not drawn),,"inconclusive: 56.2 µM [inhibitor, partial curve] and inconclusive: 44.7 µM [inhibitor, partial curve, poor fit]"
CC1CCc2c(sc(NC(=O)COc3ccccc3C(C)(C)C)c2C#N)C1 (stereo not drawn),,"inconclusive: 70.8 µM [inhibitor, single point]"
O=c1c2ccccc2sn1-c1ccc(Cl)c(S(=O)(=O)N2CCOCC2)c1,,"inconclusive: 15.8 µM [inhibitor, full curve, poor fit]"
